# According to article PMC7819943, “Rice protein-binding microarrays: a tool to detect cis-acting elements near promoter regions in rice”:
# Amino acid sequences for entries named in this document (tags omitted).
# UniProt Q0JBA9, entry or part of it: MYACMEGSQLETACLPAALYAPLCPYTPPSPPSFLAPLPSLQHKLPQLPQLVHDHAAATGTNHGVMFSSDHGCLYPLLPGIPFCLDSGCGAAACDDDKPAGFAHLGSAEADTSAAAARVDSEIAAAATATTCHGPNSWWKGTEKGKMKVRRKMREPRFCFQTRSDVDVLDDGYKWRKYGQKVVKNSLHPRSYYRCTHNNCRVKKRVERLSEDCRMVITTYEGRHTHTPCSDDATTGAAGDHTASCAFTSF
# Some of the results follow.
# Target: OsWRKY34 (Oryza sativa, UniProt Q0JBA9 1-250)
# Test: protein-binding microarray (RPBM); PBS, 2% BSA, 51.3 ng/ul salmon testes DNA, 50 uM zinc acetate, 200 nM TF, 25 C, 1 h; high values mean tight binding
# Settings: protein: recombinant; tags: N-terminal polyhistidine and DsRed monomer fusion (pET32a); label: CyDye5-dUTP incorporated in the synthesized complementary strand; 3' TTTTT single-stranded linker to array surface; dsDNA, one strand shown
# Summary of the method: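 Using Ni–NTA, transcription factors fused N-terminally to polyhistidine and DsRed were purified after expression in E. coli BL21-CodonPlus. These were incubated at 200 nM with a blocked, double-stranded custom Agilent array for 1 h at 25 °C in a buffer containing 50 µM zinc acetate, and the array was washed. The binding signal is per-feature fluorescence intensity (arbitrary units) on an Axon 4000B scanner.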
row,Sequence,binding signal
1,CCAATTTACAGTACTTTGTGCATGTGCTTTCTCCGTTTCACGGAGTCACCTAGTGCAG,8980 fluorescence intensity (a.u.)
2,TATGCCAACAGTAACAGTGCATCTCGTCTATGTATCTTCTCGGAGTCACCTAGTGCAG,9620 fluorescence intensity (a.u.)
3,TGGTTTGGGTTGTCACTTTTGGCAGAGCCTCTGTCCGGGACGGAGTCACCTAGTGCAG,8090 fluorescence intensity (a.u.)
4,ATGGCTCGGGGTAATACTGAATAGTGGTCCATCCTTTTTTCGGAGTCACCTAGTGCAG,8160 fluorescence intensity (a.u.)
5,CATCTTCCGCCCGCGCGTATCCCACACGATCGCGCGCGGGCGGAGTCACCTAGTGCAG,8700 fluorescence intensity (a.u.)
6,CAAGTGCATTTCCTCCCGATTCACCTTCAGATTTTGTTCTCGGAGTCACCTAGTGCAG,10300 fluorescence intensity (a.u.)
7,CGGCGCCCTATCCTTATCTCCTCGTTTTTCCCGATCAATTCGGAGTCACCTAGTGCAG,11100 fluorescence intensity (a.u.)
8,CATCCTAGCCCATTTTCATTCACTCAGATGGTCCCACATGCGGAGTCACCTAGTGCAG,8280 fluorescence intensity (a.u.)
9,AGCACCCTTGGTCTACACATTATTATTGCACACTATTCAACGGAGTCACCTAGTGCAG,8070 fluorescence intensity (a.u.)
10,AGGAGCTAGTTGGGGTGGTGTGCGCTGCGGCGAAGAGAGTCGGAGTCACCTAGTGCAG,8280 fluorescence intensity (a.u.)
11,AATATTTTTGCTTACGGTTCGCCTTGTCGTCTTGGTATTGCGGAGTCACCTAGTGCAG,13600 fluorescence intensity (a.u.)
12,ATGTATCTCTTGTATAGCCGCCATCCGGCCTACCCAGAATCGGAGTCACCTAGTGCAG,11500 fluorescence intensity (a.u.)
13,AATGCTGTACAGATTACGGCTCATAATTTCTACCGCTGATCGGAGTCACCTAGTGCAG,8200 fluorescence intensity (a.u.)
14,AACTCTCCTACACACATAAACTTCCAACTTTTCCGTCACACGGAGTCACCTAGTGCAG,10000 fluorescence intensity (a.u.)
15,AGCATATCAGCCACTCTTTCTTCTTTGTCTTTATCAACTCCGGAGTCACCTAGTGCAG,8250 fluorescence intensity (a.u.)
16,GCGGGCCACCCATGTCATAGACTACCTATCTATCCGCTTTCGGAGTCACCTAGTGCAG,8770 fluorescence intensity (a.u.)
17,CGACCACCACCACCACCACGCCGCGGCATCCACAACGCCACGGAGTCACCTAGTGCAG,8210 fluorescence intensity (a.u.)
18,TTATACTATTCATCTCCAACGTTTAACCGTTCATTTTATTCGGAGTCACCTAGTGCAG,9000 fluorescence intensity (a.u.)
19,TGCAGGTCTCTCTCATCATCTCATGATCGATTAGGTCTTCCGGAGTCACCTAGTGCAG,8870 fluorescence intensity (a.u.)
20,CCACACTTGCCCGCTACCCACTCTGATCTATCTCCACTGTCGGAGTCACCTAGTGCAG,9630 fluorescence intensity (a.u.)
21,AACCCGAAAAGCTGCCGTCGCCTCGTCTCGTCGCCCCGAACGGAGTCACCTAGTGCAG,10100 fluorescence intensity (a.u.)
22,TCTACTCCTTGCTCTGTAGCCACCACATCTTGGATGAATCCGGAGTCACCTAGTGCAG,9590 fluorescence intensity (a.u.)
23,AATACATCTCCATCTCTTACACTCTCCTACTACCTACCTCCGGAGTCACCTAGTGCAG,10100 fluorescence intensity (a.u.)
24,CTTTTTCATATATTTTTTTCCGTTACAACACACATAAACTCGGAGTCACCTAGTGCAG,11100 fluorescence intensity (a.u.)
25,CCTGGGTAGTGGGGACCGTAGATGCGCCGTCGGACGGCCGCGGAGTCACCTAGTGCAG,8690 fluorescence intensity (a.u.)
26,TGACTGTATTTTAATGGTATTTGTTGATTTTTTTTAAAAACGGAGTCACCTAGTGCAG,8390 fluorescence intensity (a.u.)
27,GCACTAATGTTTTTTTTCTTGTTTTGTGTAAGTAATCTGACGGAGTCACCTAGTGCAG,11900 fluorescence intensity (a.u.)

# Two records drawn at random from those above:
row,Sequence,binding signal
23,AATACATCTCCATCTCTTACACTCTCCTACTACCTACCTCCGGAGTCACCTAGTGCAG,10100 fluorescence intensity (a.u.)
2,TATGCCAACAGTAACAGTGCATCTCGTCTATGTATCTTCTCGGAGTCACCTAGTGCAG,9620 fluorescence intensity (a.u.)

# Following part:

row,Sequence,binding signal
1,CCCGAGTTTTTCCCGTCGTTTTGGGCCCGGACCCGAGCTTCGGAGTCACCTAGTGCAG,10700 fluorescence intensity (a.u.)
2,GGCTGGTTTTTTTTTTTTTGTGAGGTCCAAGGTCACACACCGGAGTCACCTAGTGCAG,10800 fluorescence intensity (a.u.)
3,CCGCGATGTCTTCCGCTCCGCCGCCGCCGCGGTCGCCGGCCGGAGTCACCTAGTGCAG,8620 fluorescence intensity (a.u.)
4,TGATGTTACTTTGATTTGGGGTTTGATTTGGGAATATGCACGGAGTCACCTAGTGCAG,13500 fluorescence intensity (a.u.)
5,CTCACCAAAACGACCTTTTTGTGCTTGTCCTGCCTGCTTCCGGAGTCACCTAGTGCAG,8820 fluorescence intensity (a.u.)
6,AGAGCTAGGGTTTGGGTAATTTGGCGAGCGAGGAGCGAGGCGGAGTCACCTAGTGCAG,8260 fluorescence intensity (a.u.)
7,TATTTGTCTGTGGTTTCGTGTTCTGATAAATATTTGTTTCCGGAGTCACCTAGTGCAG,10300 fluorescence intensity (a.u.)
8,CATGCTCCAACTCCAATTGCAAGATAATGTTCGGATCTTTCGGAGTCACCTAGTGCAG,8100 fluorescence intensity (a.u.)
9,AAGTGTGTGCTCTCATTCATGTGTCTACTATTAGGGTTATCGGAGTCACCTAGTGCAG,10100 fluorescence intensity (a.u.)
10,ATTTTAAGATGGCGTATTCACTCAACCATTACAAGTGTCACGGAGTCACCTAGTGCAG,8600 fluorescence intensity (a.u.)
11,GTCGTTCCGTATATATACTACATCTTTCCAGAATTCCAGTCGGAGTCACCTAGTGCAG,9200 fluorescence intensity (a.u.)
12,GCACATTATTTCCTGTCTCTTGAGAGTCTTTGACACACACCGGAGTCACCTAGTGCAG,10300 fluorescence intensity (a.u.)
13,CCCGCTGCCCATCTCTCTCTTTATTTATCTTCTTAAAATACGGAGTCACCTAGTGCAG,8950 fluorescence intensity (a.u.)
14,ATCTCTCTCTCTCTCTCTCACACACACCCCTAGATGAACACGGAGTCACCTAGTGCAG,8070 fluorescence intensity (a.u.)
15,ATATTAGATCCAAAGGAATATTCAGTTCATCTCTTTATTTCGGAGTCACCTAGTGCAG,8580 fluorescence intensity (a.u.)
16,ATCTCCTCTTCTCTTCTTCCACCGCCGCGGCGGCTTCGCTCGGAGTCACCTAGTGCAG,9140 fluorescence intensity (a.u.)
17,ACAGCTAAATCGCACGCACACCACAGTCTACAGCATCTCTCGGAGTCACCTAGTGCAG,9550 fluorescence intensity (a.u.)
18,CTCGATTTTCTCACTCAAATTTACAGTGCATTTTCTTGTACGGAGTCACCTAGTGCAG,9540 fluorescence intensity (a.u.)
19,TATGTATAACTAGGTTGACTTTTTTTTCTCTCTCTCAAAACGGAGTCACCTAGTGCAG,10400 fluorescence intensity (a.u.)
20,CTTCCGCCCCGCCGGCGCCCTCGCTTCGCTGTCCGCTGTGCGGAGTCACCTAGTGCAG,9230 fluorescence intensity (a.u.)
21,GGTTGATGCATGCCTTTTCTTCCGCCGTTTAAAGATCCAACGGAGTCACCTAGTGCAG,9960 fluorescence intensity (a.u.)
22,CACTAGTTTTAGTTACTAACTTATGGCTCTTGTGCTATCACGGAGTCACCTAGTGCAG,8070 fluorescence intensity (a.u.)
23,TATTTCCTTTTTTCCATGTTTTTGAATTCCTACTTTCATACGGAGTCACCTAGTGCAG,9900 fluorescence intensity (a.u.)
24,CCAATTCCCGCGCTTATATATATATCCCTCGCCTTCGCCTCGGAGTCACCTAGTGCAG,8690 fluorescence intensity (a.u.)
25,TTTTCCTGTATTTTCTAATCATCTGTTTTACACTTATATTCGGAGTCACCTAGTGCAG,11700 fluorescence intensity (a.u.)
26,AACCAGGCGTTTGATGTGGGCAAGGGAACAAGGTATTATTCGGAGTCACCTAGTGCAG,8070 fluorescence intensity (a.u.)
27,CTCTCCGTCGTTTGCCGCTCATCCTCCTGTCCCGACACACCGGAGTCACCTAGTGCAG,11700 fluorescence intensity (a.u.)
